# From PubChem BioAssay AID2685 (National Center for Advancing Translational Sciences (NCATS), 2010)
# The list shows a part of the results. These are further read-outs of the screen, such as a control signal, another cell line or another target. No call is given for them. Most of these compounds were active or inconclusive in the main read-out, so they are no random draw. The note in brackets gives the kind of curve behind each potency; many fits are weak.
# Experiment: qHTS Assay for Lipid Storage Modulators in Drosophila S3 Cells;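 for cell number change: cells counted by Cell Tracker Red CMTPX staining in the red channel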
# Settings: BODIPY lipid droplet fluorescence, 18-24 h; for cell number change: measured here: cell count max response, cells fed with added oleic acid
# Procedure, shortened: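 Drosophila S3 cells got compounds at several concentrations plus oleic acid (400 uM solution). Laser-scanning cytometry with 488 nm excitation read lipid droplets at 500-530 nm and cells at 575-640 nm. Percent activity was relative to 20 uM Triacsin C.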
# [1] = measured here: cell number channel AC50, cells fed with added oleic acid
# [2] = measured here: lipid fluorescence (Fed channel) AC50, cells fed with added oleic acid
Structure (SMILES),cell number change [%],AC50 [1],AC50 [2]
O=C(CSC1=NNC(c2ccccn2)S1)Nc1ccccc1 (configuration not stated),8.79,"2.31 µM [rising, single point]","2.06 µM [rising, partial curve, poor fit]"
c1ccc(CNc2ccc3c(c2)ncn3C2CCCCC2)nc1,,"2.31 µM [rising, partial curve]","2.06 µM [rising, partial curve]"
CC1CN(S(=O)(=O)c2cccc(-c3cn4ccccc4n3)c2)CC(C)O1 (configuration not stated),-19.9,,"29.1 µM [falling, partial curve, poor fit]"
Cc1cccc(NC(=O)c2ccc(N3C(=O)C4C5C=CC(C6CC56)C4C3=O)cc2)c1 (configuration not stated),-31.2,"29.1 µM [falling, single point]","23.1 µM [falling, single point]"
CCc1cc(=O)oc2c3c(cc(OCC(=O)N[C@H](C(=O)O)[C@H](C)CC)c12)OC(C)(C)CC3,-33.3,"0.146 µM [falling, full curve, poor fit]","6.51 µM [rising, single point]"
CCCCn1c(N)c(N(CC(C)C)C(=O)CCCc2nc3ccccc3s2)c(=O)[nH]c1=O,-34.5,"10.3 µM [falling, partial curve, poor fit]",
NC(=NC(=O)c1ccc(OCC(F)(F)F)nc1)c1ccccc1,-6.45,,"14.6 µM [falling, partial curve]"
COc1ccc(CCNC(=S)Nc2ccc(C)cc2C)cc1,-3,,"20.6 µM [falling, single point]"
COc1ccc(OC)c(CNC(=O)CCn2c(=O)c3cccn3c3ccc(F)cc32)c1,14,,
COc1ccc(S(=O)(=O)N2CCCCC2)cc1NC(=O)C1CC1C (configuration not stated),13.9,,"0.146 µM [falling, full curve, poor fit]"
O=S(=O)(c1ccc(Cl)s1)N1CCc2ccccc2C1,161,"20.6 µM [rising, partial curve]","29.1 µM [rising, single point]"
O=C(Nc1cnc2ccccc2c1)c1ccco1,9.84,,
CC(NC(=O)c1cc(S(=O)(=O)N2CCCC2)cn1C)c1ccccc1 (configuration not stated),0.865,,"13 µM [rising, partial curve, poor fit]"
CCOC(=O)C1CCN(Cc2c(C(=O)N3CCOCC3)nc3c(C)cccn23)CC1,-2.05,,
O=[N+]([O-])c1cc(CN2CCCC2)ccc1Sc1ccc(Cl)cc1,-44.3,"29.1 µM [falling, single point]","1.64 µM [falling, partial curve]"

# A run of entries from further up, as a working copy:
Structure (SMILES),cell number change [%],AC50 [1],AC50 [2]
CCOC(=O)C1CCN(Cc2c(C(=O)N3CCOCC3)nc3c(C)cccn23)CC1,-2.05,,
O=[N+]([O-])c1cc(CN2CCCC2)ccc1Sc1ccc(Cl)cc1,-44.3,"29.1 µM [falling, single point]","1.64 µM [falling, partial curve]"
